This note sets out measurements from patent US20230295116A1, “PROTEASOME ENHANCERS AND USES THEREOF” (Board of Trustees of Michigan State University, priority 2020, published 2023).

In test [1] the test system is MYC-mediated gene transcription. In words: Myc reporter assay (luciferase). It is filed as cell-based. As to conditions: Homo sapiens, HCT-116; HCT116 Myc-Luc reporter cells, 16 hours, n=3; read-out: EC50 for inhibition of c-MYC. The method, then: (§1) Firefly luminescence was measured using the One-Step Luciferase Assay System from BPS Biosciences.
as §1
Background: In a reporter assay the amount or activity of a reporter protein is the signal.

Test [2] concerns NF-kB transcription. In words: NF-κB reporter assay (luciferase). It is filed as cell-based. To be noted: Homo sapiens; HCT-116 NF-kappaB-luc reporter cells, TNF-alpha 2 ng/mL, 16 hours, n=3; read-out: EC50 for inhibition of NF-kB transcription. The protocol: as §1

Turning to `COc1ccc(CCN2CCC(Nc3nc4ccccc4n3Cc3ccc(F)cc3)CC2)cc1` [Compound 1, astemizole], the EC50 in test [1] was 21.8 µM; in test [2], 15.8 µM.

A word on the EC50: it is the concentration that produces a half-maximal response.
